Some results were stated once for a whole list of compounds, not compound by compound.
Test: Pharmacokinetics after intra-tracheal dry powder dosing in the pig
Assay type: in vivo
Details: anaesthetised pigs, 1 mg intra-tracheal dry powder
Protocol: Serial blood samples were taken for up to 8 h following dosing.

CCC(=O)O[C@]1(C(=O)SCF)[C@H](C)C[C@H]2[C@@H]3C[C@H](F)C4=CC(=O)C=C[C@]4(C)[C@@]3(F)[C@@H](O)C[C@@]21C [Fluticasone propionate, 6α, 9α-Difluoro-17α-(1-oxopropoxy)-11β-hydroxy-16α-methyl-3-oxo-androsta-1,4-diene-17β-carbothioic acid S-fluoromethyl ester, reference compound]
time of maximum plasma concentration after dosing: ≤ 15 min

— patent US20050130947A1, “Formulations for inhalation” (priority 2002, published 2005)
